Laboratory results from US20090169546A1.
These are yes or no findings as the source states them, for the method shown. Some results given as binding are weak or reduced against the parent protein; the word gives no strength.

T1: HMGB1 peptide 179-186 (human)
T1 sequence (peptide, biotinylated): EKSKKKKE


Experiments:
[1] = biological target: T1, HMGB1 peptide 179-186 (human); assay: ELISA on biotinylated peptides captured on avidin
[2] = biological target: T1, HMGB1 peptide 179-186 (human); assay: ELISA on biotinylated peptides captured on avidin, FIG. 5C
[3] = biological target: HMGB1 B-box peptide 108-138 (human); assay: ELISA on biotinylated peptides captured on avidin
[4] = biological target: HMGB1 B-box peptide 108-138 (human); assay: ELISA on biotinylated peptides captured on avidin, FIG. 5C

| binding [1] | binding [2] | binding [3] | binding [4] | Binder |
| --- | --- | --- | --- | --- |
| binds | binds | – | – | anti-HMG1 antibody S16 (antibody, V domains shown) VH: EVQLLESGGGLVQPGGSLRLSCAASGFTFSWYSMLWVRQAPGKGLEWVSYISPSGGFTNYADSVKGRFTISRDNSKNTLYLQMNSLRAEDTAVYYCARWDYNSGWYYDHWGQGTLVTVSS VL: DIQMTQSPDTLSLSPGERATLSCRASQSVNSRNLAWYQQKPGQAPRLLIYGASTRATGIPDRFSGSVSGTEFTLTISSLQPDDFATYYCQQYNSYFTFGQGTKLEIK |
| – | – | binds | binds | anti-HMG1 antibody G4 (antibody, V domains shown) VH: EVQLLESGGGLVQPGGSLRLSCAASGFTFSWYDMTWVRQAPGKGLEWVSSISPSGGYTKYADSVKGRFTISRDNSKNTLYLQMNSLRAEDTAVYYCTTEFYDYLDVWGKGTTVTVSS VL: DIQMTQSPGTLSLSPGEGATLSCRASQSVSSTYLAWYQQKPGQAPRLLIYEASKRATGTPARFSGSGSGTDFTLSISSLEPEDFAVYYCQHRHNWPPQWTFGQGTKVEVK |
